Measured values published in PubChem BioAssay AID256 (DTP/NCI, 2004).
The list does not hold the whole screen: it gathers tests that were run many times, whatever their T/C, doses with no T/C, and many T/C values between a quarter and a half above the control. Further doses and runs are listed elsewhere. T/C is the treated group as % of the vehicle group. Some doses have a count of surviving animals in place of a T/C: the source holds a T/C of zero for them, seemingly a mark for toxic or unscored doses. Some doses without a T/C left all or most animals alive at the check, yet need not have been tolerated: the source hardly ever lists a survival T/C far under the control, and the zero likely stands for such cases as well. Counts of survivors are from the toxicity check (mostly the fifth day) where no day follows; animals may have died later. Schedule codes are those of the source, taken here to give the interval after Q, in days (D) or hours (H), and the number of doses after X. For survival time, this PubChem deposit counts one and a half times the control or more as active, and values a quarter to a half above the control carry no call in these data; other NCI protocols may use other cut-offs. Additions like (4×) count equal records among those shown. Some T/C values are followed by the survivors on the day toxicity was checked, most often the fifth; where none is given, no animal had died by that day. Some entries hold several experiments; the values are given in rising order. Some schedules carry Z or #; the key to these is not given.

Tested on: CD2F1 mice, L1210 leukemia ip, survival T/C
Assay: NCI In Vivo Anticancer Drug Screen. Data for tumor model L1210 Leukemia (intraperitoneal) in CD2F1 (CDF1) mice
Details: T/C endpoint: mean survival time, higher T/C = longer survival
Procedure, shortened: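 Activity against a transplanted murine tumor was judged by comparing the compound group with a vehicle group. The outcome in the treated animals was divided by that in the controls.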

[1] = dose: 100.0 mg/kg/injection, schedule: Q01DX009 (ip), vehicle: water

In the case of `O=P1(N(CCCl)CCCl)NCCCO1` (stereo not given), the T/C (dose: 100.0 mg/kg/injection, schedule: Q01DX001 (ip), vehicle: other, evaluated on day 30) is reported as 141 % of control, the T/C (dose: 100.0 mg/kg/injection, schedule: Q01DX001 (ip), vehicle: other, evaluated on day 50) is reported as 139 % of control and the T/C (dose: 100.0 mg/kg/injection, schedule: Q01DX001 (ip), vehicle: saline, evaluated on day 5) is reported as 138, 141, 147, 157 (2×), 161, 169 % of control. The T/C (dose: 100.0 mg/kg/injection, schedule: Q01DX001 (ip), vehicle: saline, evaluated on day 7) was 153 % of control, the T/C (dose: 100.0 mg/kg/injection, schedule: Q01DX001 (ip), vehicle: saline, evaluated on day 30) was 117, 127 [5 of 6 alive], 129, 134 (2×), 144, 155 % of control and the T/C (dose: 100.0 mg/kg/injection, schedule: Q01DX001 (ip), vehicle: saline, evaluated on day 35) was 134 and 157 % of control. For the same molecule, the T/C (dose: 100.0 mg/kg/injection, schedule: Q01DX001 (ip), vehicle: saline, evaluated on day 40) was 145 and 153 % of control, the T/C (dose: 100.0 mg/kg/injection, schedule: Q01DX001 (ip), vehicle: saline, evaluated on day 60) was 138, 139, 147, 150, 161 % of control and the T/C (dose: 100.0 mg/kg/injection, schedule: Q01DX001 (ip), vehicle: saline, evaluated on day 90) was 95, 132, 134, 136, 142, 143, 145 % of control. The T/C (dose: 100.0 mg/kg/injection, schedule: Q01DX001 (ip), vehicle: water, evaluated on day 5) was 159 % of control, the T/C (dose: 100.0 mg/kg/injection, schedule: Q01DX001 (ip), vehicle: water, evaluated on day 30) was 121, 133, 134, 145, 150, 151, 152, 155, 156, 160, 165, 168 % of control and the T/C (dose: 100.0 mg/kg/injection, schedule: Q01DX001 (ip), vehicle: water, evaluated on day 35) was 184 % of control. The T/C (dose: 100.0 mg/kg/injection, schedule: Q01DX001 (ip), vehicle: water, evaluated on day 45) was 159 % of control, the T/C (dose: 100.0 mg/kg/injection, schedule: Q01DX005 (ip), vehicle: water) was 171 [5 of 6 alive], 198, 211, 249 % of control and the T/C [1] was 92, 118, 125, 132, 141, 142, 152, 172, 182, 186, 188, 189, 192, 194, 214 % of control. The survivor count [1] was 6 of 6, the T/C (dose: 100.0 mg/kg/injection, schedule: Q## X001 (ip), vehicle: saline) was 148 % of control and the T/C (dose: 125.0 mg/kg/injection, schedule: Q01DX001 (ip), vehicle: DMSO, evaluated on day 20) was 134 % of control. The T/C (dose: 125.0 mg/kg/injection, schedule: Q01DX001 (ip), vehicle: DMSO, evaluated on day 25) was 148 and 151 % of control, the T/C (dose: 125.0 mg/kg/injection, schedule: Q01DX001 (ip), vehicle: DMSO, evaluated on day 40) was 170 % of control and the T/C (dose: 125.0 mg/kg/injection, schedule: Q01DX001 (ip), vehicle: DMSO, evaluated on day 60) was 144 % of control. For the same molecule, the T/C (dose: 125.0 mg/kg/injection, schedule: Q01DX001 (ip), vehicle: Klucel (hydroxypropylcellulose) (HPC)) was 148 % of control, the T/C (dose: 125.0 mg/kg/injection, schedule: Q01DX001 (ip), vehicle: saline, evaluated on day 30) was 145, 148, 149 [5 of 6 alive], 159, 170, 174, 181, 196, 243 % of control and the T/C (dose: 125.0 mg/kg/injection, schedule: Q01DX001 (ip), vehicle: saline, evaluated on day 35) was 141, 157, 167 [5 of 6 alive], 210 % of control. The T/C (dose: 125.0 mg/kg/injection, schedule: Q01DX001 (ip), vehicle: saline, evaluated on day 40) was 113 % of control, the T/C (dose: 125.0 mg/kg/injection, schedule: Q01DX001 (ip), vehicle: saline, evaluated on day 45) was 136, 147, 151 % of control and the T/C (dose: 125.0 mg/kg/injection, schedule: Q01DX001 (ip), vehicle: saline, evaluated on day 60) was 138 % of control. For the same molecule, the T/C (dose: 125.0 mg/kg/injection, schedule: Q01DX001 (ip), vehicle: water, evaluated on day 30) was 119, 139 (2×), 140, 141, 143, 144, 145, 145 [5 of 6 alive], 147, 148, 149, 150, 152 (2×), 153 (2×), 154 (2×), 156 (2×), 157, 159, 160 [5 of 6 alive], 161 (2×), 166, 170 (2×), 172, 173 (2×), 175, 179, 181, 182, 187, 193, 197, 201, 208, 213, 306 % of control, the T/C (dose: 125.0 mg/kg/injection, schedule: Q01DX001 (ip), vehicle: water, evaluated on day 35) was 152 and 185 % of control [4 of 6 alive] and the T/C (dose: 125.0 mg/kg/injection, schedule: Q01DX001 (ip), vehicle: water, evaluated on day 40) was 166 and 196 % of control. For the same molecule, the T/C (dose: 125.0 mg/kg/injection, schedule: Q01DX001 (ip), vehicle: water, evaluated on day 45) was 159 and 166 % of control, the T/C (dose: 125.0 mg/kg/injection, schedule: Q01DX001 (ip), vehicle: water, evaluated on day 60) was 159 % of control and the T/C (dose: 150.0 mg/kg/injection, schedule: Q01DX001 (ip), vehicle: saline, evaluated on day 5) was 170 % of control. For the same molecule, the T/C (dose: 150.0 mg/kg/injection, schedule: Q01DX001 (ip), vehicle: saline, evaluated on day 6) was 163 % of control, the T/C (dose: 150.0 mg/kg/injection, schedule: Q01DX001 (ip), vehicle: saline, evaluated on day 30) was 124, 146, 153, 162, 165, 166 % of control and the T/C (dose: 200.0 mg/kg/injection, schedule: Q01DX001 (ip), vehicle: saline, evaluated on day 5) was 185, 203, 210, 239, 247, 299, 300, 394, 460 % of control. For the same molecule, the T/C (dose: 200.0 mg/kg/injection, schedule: Q01DX001 (ip), vehicle: saline, evaluated on day 7) was 199 % of control, the T/C (dose: 200.0 mg/kg/injection, schedule: Q01DX001 (ip), vehicle: saline, evaluated on day 30) was 150, 151, 161, 168, 251, 255, 259, 329 % of control and the T/C (dose: 200.0 mg/kg/injection, schedule: Q01DX001 (ip), vehicle: saline, evaluated on day 35) was 167 and 203 % of control. The T/C (dose: 200.0 mg/kg/injection, schedule: Q01DX001 (ip), vehicle: saline, evaluated on day 40) was 200 and 258 % of control, the T/C (dose: 200.0 mg/kg/injection, schedule: Q01DX001 (ip), vehicle: saline, evaluated on day 45) was 402 % of control and the T/C (dose: 200.0 mg/kg/injection, schedule: Q01DX001 (ip), vehicle: saline, evaluated on day 60) was 209, 300 (2×), 394, 397, 460 % of control. For the same molecule, the T/C (dose: 200.0 mg/kg/injection, schedule: Q01DX001 (ip), vehicle: saline, evaluated on day 90) was 98, 152, 157, 162 [9 of 10 alive], 181, 185, 267 % of control, the T/C (dose: 200.0 mg/kg/injection, schedule: Q01DX001 (ip), vehicle: water, evaluated on day 5) was 127 % of control and the T/C (dose: 200.0 mg/kg/injection, schedule: Q01DX001 (ip), vehicle: water, evaluated on day 7) was 197 % of control. For the same molecule, the T/C (dose: 200.0 mg/kg/injection, schedule: Q01DX001 (ip), vehicle: water, evaluated on day 30) was 147, 170, 178, 184, 193, 195, 202, 208, 218, 262, 291, 344 % of control, the T/C (dose: 200.0 mg/kg/injection, schedule: Q01DX001 (ip), vehicle: water, evaluated on day 35) was 247 % of control and the T/C (dose: 200.0 mg/kg/injection, schedule: Q01DX001 (ip), vehicle: water, evaluated on day 45) was 127 % of control. The T/C (dose: 200.0 mg/kg/injection, schedule: Q01DX001 (ip), vehicle: water, evaluated on day 60) was 197 % of control, the survivor count (dose: 200.0 mg/kg/injection, schedule: Q01DX009 (ip), vehicle: water) was 6 of 6 and the T/C (dose: 250.0 mg/kg/injection, schedule: Q01DX001 (ip), vehicle: DMSO, evaluated on day 20) was 227 % of control. The T/C (dose: 250.0 mg/kg/injection, schedule: Q01DX001 (ip), vehicle: DMSO, evaluated on day 25) was 252 % of control (2×), the T/C (dose: 250.0 mg/kg/injection, schedule: Q01DX001 (ip), vehicle: DMSO, evaluated on day 40) was 438 % of control and the T/C (dose: 250.0 mg/kg/injection, schedule: Q01DX001 (ip), vehicle: DMSO, evaluated on day 60) was 397 % of control. For the same molecule, the T/C (dose: 250.0 mg/kg/injection, schedule: Q01DX001 (ip), vehicle: saline, evaluated on day 30) was 166, 179, 200, 216, 219, 222, 278 [5 of 6 alive], 346, 354 % of control, the T/C (dose: 250.0 mg/kg/injection, schedule: Q01DX001 (ip), vehicle: saline, evaluated on day 35) was 225, 269, 274, 288 % of control and the T/C (dose: 250.0 mg/kg/injection, schedule: Q01DX001 (ip), vehicle: saline, evaluated on day 40) was 143 % of control. For the same molecule, the T/C (dose: 250.0 mg/kg/injection, schedule: Q01DX001 (ip), vehicle: saline, evaluated on day 45) was 225, 236, 237 % of control, the T/C (dose: 250.0 mg/kg/injection, schedule: Q01DX001 (ip), vehicle: saline, evaluated on day 60) was 289 % of control and the T/C (dose: 250.0 mg/kg/injection, schedule: Q01DX001 (ip), vehicle: water, evaluated on day 30) was 129, 132 [5 of 6 alive], 136, 141, 146, 148, 158, 159, 173 (3×), 183, 200 [5 of 6 alive], 208, 210, 219, 227, 233, 236, 241, 246, 259, 273, 274, 280 (2×), 281, 282 (2×), 292, 297 (2×), 303, 308, 310 (2×), 320, 329, 337, 351, 353 % of control.
